# Values of other authors in patent US10829649B2, “Methods and coatings for protecting surfaces from bio-fouling species” (priority 2018, dated 2020).
# Some of these results come from one statement about several compounds together.
# Conditions: cited from earlier work
compound,measurement,value
CCCSc1ccc2nc(NC(=O)OC)[nH]c2c1 [albendazole],water solubility,< 1 µg/mL
